# Among all 59,000 compounds or so, about 6,500 (11%) were called active. Inconclusive results, whose numbers are uncertain, are shown with a selection of clear calls. Cut-off read from the data, not from the text of the source: active = max dye-equivalent concentration above about 10 nM; inconclusive = mostly about 1.1 nM to 9.6 nM; inactive = weaker than that.
# Assay: qHTS Assay for Spectroscopic Profiling in A350 Spectral Region
# Conditions: Compound autofluorescence, 340/450 nm, Alexa 350 dye-equivalents; stronger effect = higher value
row,SMILES,max dye-equivalent concentration
1,O=S(=O)(Nc1nc(CN2CCOCC2)nc2sc3c(c12)CCCC3)c1cc(F)ccc1F,active: 20 nM
2,O=C(NCCCCNC(=O)C1CCCC1)C1CCCC1,inconclusive: 5.2 nM
3,C=CCNC(=O)NC(=O)COC(=O)CCCSc1nc2ccccc2[nH]1,inconclusive: 1.2 nM
4,CC(=O)NC1=NC(=O)/C(=C/N2CCCCC2)S1,active: 79 nM
5,CCCNC(=O)N1CCN(c2ncccn2)CC1,inconclusive: 8.5 nM
6,CCOC(=O)c1cnn2c1[nH]c(=O)c1ccccc12,inconclusive: 6.6 nM
7,O=C1NC(=O)C(c2ccccc2[N+](=O)[O-])=C1Nc1ccc(O)c(Cl)c1,inconclusive: 4.1 nM
8,CCCCc1nccn1CCn1ccnc1CCCC,inconclusive: 1.8 nM
9,Cc1cccc(Cc2c(C)nc3c(C(=O)NCc4ccco4)cnn3c2C)c1,active: 29 nM
10,CCN(CC)S(=O)(=O)c1cccc(C(=O)Nc2nncs2)c1,active: 120 nM
11,CC1CN(C(=O)CCn2c(=O)oc3ccccc32)CC(C)O1 (stereo not drawn),inactive
12,COc1ccc(CCCC(=O)O)c(C)c1,inactive
13,O=S(=O)(NCc1cccnc1)c1ccc(Br)s1,inactive
14,c1ccc(-c2nnc3sc(-c4csc5c4CCCC5)nn23)cc1,inactive
15,c1ccc(SC(Sc2ccccc2)c2ccc3c(c2)OCO3)cc1,inactive
16,CCc1ccc2oc(-c3cc(N)ccc3Cl)nc2c1,inconclusive: 9.8 nM
17,C=CCn1c(SCC(=O)NCCOC)nc2scc(-c3ccco3)c2c1=O,inconclusive: 2.5 nM
18,COc1cc(CO)cc(Br)c1OCc1cccnc1,inconclusive: 2.7 nM
19,CN(Cc1ccccc1)c1oc(-c2ccco2)nc1C#N,inconclusive: 5.6 nM
20,c1ccc(C2C3=C(CCCC3)Nc3ncnn32)cc1 (stereo not drawn),inconclusive: 1.6 nM
21,COc1ccc(-c2cc(C(F)(F)F)nc(S(=O)(=O)CCC(=O)N3CCOCC3)n2)cc1,active: 110 nM
22,Cc1ccc(-c2noc(CCC(=O)Nc3ccccc3C)n2)cc1,active: 11 nM
23,O=C(O)C1CCN(S(=O)(=O)N2CCOCC2)CC1,inconclusive: 1.6 nM
24,C=CCNc1nc(N2CCOCC2)c(C#N)c2c1CN(C)CC2,active: 62 nM

row,SMILES,max dye-equivalent concentration
1,Cc1ccc(-c2nnc(N3CCN(C(=O)c4ccco4)CC3)c3ccccc23)cc1,inactive
2,COc1cc(C2C(C(=O)c3cccs3)=C(O)C(=O)N2c2cc(C)on2)ccc1O (stereo not drawn),inconclusive: 2.3 nM
3,O=C1c2ccccc2[C@@H]([C@@H]2c3ccccc3C(=O)c3cc(Br)ccc32)c2ccc(Br)cc21,inactive
4,COc1ccc2nc(Nc3nc(C)c(C(C)=O)s3)sc2c1,inactive
5,Cc1cc(NC(=O)CSc2nc3c(c(=O)n2-c2ccc(Cl)cc2)SCC3)no1,inconclusive: 2.6 nM
6,Cc1c(/C(O)=C2\C(=O)C(=O)N(CCN(C)C)C2c2cccnc2)cnn1-c1ccccc1 (stereo not drawn),inconclusive: 2.6 nM
7,COc1ccccc1CNc1ncnc2ccc(-c3c(C)noc3C)cc12,inactive
8,COC(=O)c1ccccc1NC(=O)c1cc(-c2ccc(OC)c(OC)c2)on1,inconclusive: 1.4 nM
9,CC(C)CNC(=O)COC(=O)c1cc(S(=O)(=O)N2CCCCC2)ccc1N1CCOCC1,inconclusive: 6.3 nM
10,Nc1c(C(=O)NCC2CCCO2)c2nc3ccccc3nc2n1/N=C/c1ccncc1 (stereo not drawn),inconclusive: 5.3 nM
11,O=C(c1ccncc1)N1C2C=CC(C2)C1(C(F)(F)F)C(F)(F)F (stereo not drawn),inconclusive: 1.8 nM
12,Cn1cnnc1SCNC(=O)C(F)(F)F,inactive
13,COc1ccc2c(c1)CCc1c(C(=O)N3CCCCCC3)noc1-2,inactive
14,Cn1nc(-c2ccc(N3CCOCC3)c(NC(=O)c3ccccc3)c2)c2ccccc2c1=O,inactive
15,COC(=O)c1cccnc1-n1c(=O)c2cccnc2n(Cc2ccc(Cl)cc2)c1=O,active: 47 nM
16,CC(C)c1nnc(NC(=O)Cn2nc(-c3ccc4c(c3)OCCO4)ccc2=O)s1,active: 38 nM
17,CCOc1cc(N2C(=O)CC3CS(=O)(=O)CC32)c(OCC)cc1NC(=O)c1ccccc1 (stereo not drawn),inconclusive: 5.8 nM
18,COc1ccc(S(=O)(=O)Nc2cc(C(C)C)c(O)cc2C)cc1,inconclusive: 1.2 nM
19,COc1cc(CNC2CCCC2)cc(OC)c1OC,active: 16 nM
20,Cc1nc2ccc(C(C(F)(F)F)(C(F)(F)F)C(F)(F)F)cc2[nH]1,active: 220 nM
21,COc1ccc2c(c1)[nH]c1c(=O)n(CCc3cnc[nH]3)cnc12,active: 27 nM
22,O=C1C(Cl)=C(NCCCN2CCOCC2)C(=O)N1CCc1ccccc1,inactive
23,CCOC(=O)C1CCN(CC(=O)Nc2c(C(=O)OC)[nH]c3cccc(C)c23)CC1,inconclusive: 1.1 nM
24,COc1ccccc1C1CC(c2ccc(C)cc2)Nc2ncnn21 (stereo not drawn),inconclusive: 1.4 nM

row,SMILES,max dye-equivalent concentration
1,NC(N)=N[C@H](CC(=O)O)c1ccccc1,inactive
2,CN1CCN(/C=N/c2c(C#N)cnn2Cc2ccccc2)CC1,inactive
3,CC(C)Cc1nc2n[nH]c(N)c2c2c1CCC2,inactive
4,O=C(O)c1cc2ccc3ccccc3c2[nH]1,inconclusive: 8.9 nM
5,CC(=O)NC(=O)NC1OC(=O)C(Cl)=C1Cl (stereo not drawn),inconclusive: 5.2 nM
6,Cc1ccccc1-c1cc(-n2ccnc2)ncn1,inconclusive: 1.2 nM
7,CC(=O)Nc1nc(C)nc(-c2ccccc2OC(C)=O)n1,active: 170 nM
8,CCc1cc2c(=O)[nH]cnc2s1,inconclusive: 5.1 nM
9,CC1(C)CC(=O)C2=C(C1)NC(=O)CC2c1cc2c(cc1Br)OCO2 (stereo not drawn),inactive
10,O=c1ccc2cc3c([nH]c4ccc(Br)cc43)oc-2c1O,inconclusive: 1.3 nM
11,Cc1cc(C(=O)OCC(=O)Nc2cc(C)on2)c2ccccc2n1,inconclusive: 1.6 nM
12,CC1CN(c2nc3ccccc3nc2C(C#N)C(=O)OC2CCCCC2)CC(C)O1 (stereo not drawn),inconclusive: 2 nM
13,COC(=O)CCCCC1SCC(NC(=O)OC)C1NC(=O)OC (stereo not drawn),inconclusive: 1.7 nM
14,NC(=O)C1CCN(CC(=O)c2c[nH]c3ccc(F)cc23)CC1,inconclusive: 1.1 nM
15,CC1CC(C)CN(CC(=O)N2CCc3[nH]c4ccccc4c3C2)C1 (stereo not drawn),inconclusive: 1.7 nM
16,c1ccc2c(Nc3ccncc3)nc(-c3ccoc3)nc2c1,inactive
17,Cc1nnc(SCC(=O)N2CC(=O)Nc3ccccc32)n1-c1ccccc1,inconclusive: 2 nM
18,Cc1cc(C)cc(NC(=O)C2CCCN(c3nc(C)cc(C)n3)C2)c1 (stereo not drawn),inactive
19,CCOC(=O)c1ccc(N2C(=O)CC(SCC(N)C(=O)OCC)C2=O)cc1 (stereo not drawn),inconclusive: 1.6 nM
20,CCCN(CCC)CCNC(=O)C(NS(=O)(=O)c1ccc2c(c1)CCC(=O)N2)c1ccccc1 (stereo not drawn),inconclusive: 3.3 nM
21,CCOC(=O)C1CCN(c2c(NCCCN(CC)c3ccccc3)c(=O)c2=O)CC1,inconclusive: 1.1 nM
22,COc1ccc(OC)c(-n2cnc3cc(C(=O)O)ccc32)c1,inactive
23,Cn1c(=O)c2c(nc(CN3CCN(C(=O)c4ccco4)CC3)n2Cc2ccc(Cl)cc2)n(C)c1=O,inactive
24,Clc1ccc(OCc2cn3cccnc3n2)c2ncccc12,inconclusive: 2.6 nM

row,SMILES,max dye-equivalent concentration
1,CSc1sc(C)cc1C1C(C#N)=C(N)N(c2cccnc2)C2=C1C(=O)CCC2 (stereo not drawn),inconclusive: 1.8 nM
2,CCN1CCN(c2nc3c(c(=O)n(C)c(=O)n3C)n2CCSc2ncccn2)CC1,inconclusive: 1.8 nM
3,COCC(=O)N(C)c1nnc(-c2ccccn2)s1,inconclusive: 9.9 nM
4,C=CCn1c(COc2ccccc2)nnc1SCC(=O)Nc1ccc2c(c1)OCCO2,inconclusive: 1.7 nM
5,COc1cccc(Nc2ncc3nc(-c4cccs4)c(=O)n(Cc4cccs4)c3n2)c1,inactive
6,CCC(NC(=O)Nc1ccc(O)cc1)(C(F)(F)F)C(F)(F)F,inactive
7,CCOC(=O)Cn1nnnc1CN(Cc1ccc(OC)cc1)Cc1cc2cc(C)cc(C)c2[nH]c1=O,inconclusive: 4 nM
8,O=C(CN1CCN(c2ccccc2F)CC1)Nc1ccccc1F,inconclusive: 6.7 nM
9,N#Cc1ccc(CN2CC3(CCN(C(=O)c4ccco4)CC3)C2)cc1,inactive
10,CN(C)c1ccc(C2C3=C(CCCC3=O)OC3=C2C(=O)CCC3)cc1,inactive
11,Cc1nc2sc(C(=O)O)c(N)c2c2c1COC(C)(C)C2,inconclusive: 6.5 nM
12,COc1ccc(CNC(=O)c2c(C)cc(=O)oc2C)cc1OC,inconclusive: 1.2 nM
13,Cn1c(CN2CCCCC2)nc2cc(NS(=O)(=O)c3ccc(Cl)cc3)ccc21,inactive
14,CC1=CC(=C2C(=O)c3ccccc3C2=O)C=C(C)O1,inconclusive: 1.7 nM
15,NC(=O)C1CCN(c2nc(-c3ccccc3)nc3ccccc23)CC1,inactive
16,Cc1ccc(-c2nn(C)c(=O)c3ccccc23)cc1S(=O)(=O)NCCN1CCOCC1,inactive
17,COC(=O)c1ccc(CNC(=O)COc2ccccc2Br)o1,inactive
18,Clc1ccc(Cc2nn3c(-c4ccncc4)nnc3s2)cc1,inconclusive: 2 nM
19,O=C1CCc2cc(S(=O)(=O)N3CCN(c4cccc(Cl)c4)CC3)ccc2N1,inconclusive: 1.1 nM
20,c1coc(CN=C2NC(=NCc3ccco3)c3ccccc32)c1,inactive
21,CC(C)(C)NS(=O)(=O)c1ccc(CCC(=O)N2CCCCC2)cc1,inconclusive: 2.6 nM

# Quoted from the listing, 28 compounds:
row,SMILES,max dye-equivalent concentration
16,c1ccc2c(Nc3ccncc3)nc(-c3ccoc3)nc2c1,inactive
17,Cc1nnc(SCC(=O)N2CC(=O)Nc3ccccc32)n1-c1ccccc1,inconclusive: 2 nM
18,Cc1cc(C)cc(NC(=O)C2CCCN(c3nc(C)cc(C)n3)C2)c1 (stereo not drawn),inactive
19,CCOC(=O)c1ccc(N2C(=O)CC(SCC(N)C(=O)OCC)C2=O)cc1 (stereo not drawn),inconclusive: 1.6 nM
20,CCCN(CCC)CCNC(=O)C(NS(=O)(=O)c1ccc2c(c1)CCC(=O)N2)c1ccccc1 (stereo not drawn),inconclusive: 3.3 nM
21,CCOC(=O)C1CCN(c2c(NCCCN(CC)c3ccccc3)c(=O)c2=O)CC1,inconclusive: 1.1 nM
22,COc1ccc(OC)c(-n2cnc3cc(C(=O)O)ccc32)c1,inactive
23,Cn1c(=O)c2c(nc(CN3CCN(C(=O)c4ccco4)CC3)n2Cc2ccc(Cl)cc2)n(C)c1=O,inactive
24,Clc1ccc(OCc2cn3cccnc3n2)c2ncccc12,inconclusive: 2.6 nM
1,CSc1sc(C)cc1C1C(C#N)=C(N)N(c2cccnc2)C2=C1C(=O)CCC2 (stereo not drawn),inconclusive: 1.8 nM
2,CCN1CCN(c2nc3c(c(=O)n(C)c(=O)n3C)n2CCSc2ncccn2)CC1,inconclusive: 1.8 nM
3,COCC(=O)N(C)c1nnc(-c2ccccn2)s1,inconclusive: 9.9 nM
4,C=CCn1c(COc2ccccc2)nnc1SCC(=O)Nc1ccc2c(c1)OCCO2,inconclusive: 1.7 nM
5,COc1cccc(Nc2ncc3nc(-c4cccs4)c(=O)n(Cc4cccs4)c3n2)c1,inactive
6,CCC(NC(=O)Nc1ccc(O)cc1)(C(F)(F)F)C(F)(F)F,inactive
7,CCOC(=O)Cn1nnnc1CN(Cc1ccc(OC)cc1)Cc1cc2cc(C)cc(C)c2[nH]c1=O,inconclusive: 4 nM
8,O=C(CN1CCN(c2ccccc2F)CC1)Nc1ccccc1F,inconclusive: 6.7 nM
9,N#Cc1ccc(CN2CC3(CCN(C(=O)c4ccco4)CC3)C2)cc1,inactive
10,CN(C)c1ccc(C2C3=C(CCCC3=O)OC3=C2C(=O)CCC3)cc1,inactive
11,Cc1nc2sc(C(=O)O)c(N)c2c2c1COC(C)(C)C2,inconclusive: 6.5 nM
12,COc1ccc(CNC(=O)c2c(C)cc(=O)oc2C)cc1OC,inconclusive: 1.2 nM
13,Cn1c(CN2CCCCC2)nc2cc(NS(=O)(=O)c3ccc(Cl)cc3)ccc21,inactive
14,CC1=CC(=C2C(=O)c3ccccc3C2=O)C=C(C)O1,inconclusive: 1.7 nM
15,NC(=O)C1CCN(c2nc(-c3ccccc3)nc3ccccc23)CC1,inactive
16,Cc1ccc(-c2nn(C)c(=O)c3ccccc23)cc1S(=O)(=O)NCCN1CCOCC1,inactive
17,COC(=O)c1ccc(CNC(=O)COc2ccccc2Br)o1,inactive
18,Clc1ccc(Cc2nn3c(-c4ccncc4)nnc3s2)cc1,inconclusive: 2 nM
19,O=C1CCc2cc(S(=O)(=O)N3CCN(c4cccc(Cl)c4)CC3)ccc2N1,inconclusive: 1.1 nM

# Reference: PubChem BioAssay AID590 (National Center for Advancing Translational Sciences (NCATS), 2007)
